Construct, isoform or probe ends are uncertain for at least one entry. Where cells or extracts were used, other partners may take part. Negatives hold for the conditions tested. Tags and fusion partners may be left off the protein sequences shown.
Biological target: T1, Androgen receptor (AR), endogenous LNCaP (mutated AR, mutation not stated) (Homo sapiens) (UniProt P10275)
T1 sequence (looked up, limits assumed): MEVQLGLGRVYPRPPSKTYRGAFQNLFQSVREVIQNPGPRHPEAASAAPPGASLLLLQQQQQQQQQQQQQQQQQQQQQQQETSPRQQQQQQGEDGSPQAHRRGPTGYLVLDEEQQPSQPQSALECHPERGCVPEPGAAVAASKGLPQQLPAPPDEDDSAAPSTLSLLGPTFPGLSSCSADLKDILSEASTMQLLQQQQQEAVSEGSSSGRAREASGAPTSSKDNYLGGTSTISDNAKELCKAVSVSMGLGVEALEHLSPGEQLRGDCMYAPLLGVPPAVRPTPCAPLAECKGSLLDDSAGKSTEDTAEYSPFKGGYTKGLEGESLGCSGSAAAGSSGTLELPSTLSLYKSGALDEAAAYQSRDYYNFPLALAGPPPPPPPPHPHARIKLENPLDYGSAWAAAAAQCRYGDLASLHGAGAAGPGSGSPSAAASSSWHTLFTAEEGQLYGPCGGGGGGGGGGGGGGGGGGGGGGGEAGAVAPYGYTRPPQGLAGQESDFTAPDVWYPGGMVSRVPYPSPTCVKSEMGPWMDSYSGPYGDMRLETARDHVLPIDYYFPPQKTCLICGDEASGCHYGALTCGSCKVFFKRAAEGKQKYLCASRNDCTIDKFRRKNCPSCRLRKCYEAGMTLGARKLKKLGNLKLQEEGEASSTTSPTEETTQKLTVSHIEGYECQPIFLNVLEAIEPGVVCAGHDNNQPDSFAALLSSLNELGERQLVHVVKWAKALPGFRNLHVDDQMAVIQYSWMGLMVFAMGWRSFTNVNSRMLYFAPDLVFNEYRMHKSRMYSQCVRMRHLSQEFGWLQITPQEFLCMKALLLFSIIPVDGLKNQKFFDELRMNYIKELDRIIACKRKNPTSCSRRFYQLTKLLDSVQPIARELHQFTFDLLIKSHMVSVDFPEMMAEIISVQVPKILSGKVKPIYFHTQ
Assay: pull-down
Details: RIPA buffer, 150 mM NaCl, 4 C, anti-AR Western blot, protein in an extract, protein details: LNCaP total RIPA extract, label: biotin

Row | Sequence | binding result | binding result (variant of wild-type ARE[-186] biotinylated oligo)
1 | GCAAGGTGAGGTCAGTTCTTAAA (double strand) [wild-type ARE[-186] biotinylated oligo] | binds | –
2 | GCAAGGTGTGGTCAACTATTAAA (double strand) [mutated ARE[-186] biotinylated oligo] | – | no binding

Source: patent publication US20070032439, “Tarp promoter and uses thereof” (published 2007)
